Source: PMC5233801
No constants are given. Whether binding was seen depends on the method and setting. For some assays here: Binding can be weak; no strength is given. Tags and fused reporters may be left off the sequences shown. For some assays here: Binding seen in cells or lysates may run through a third protein.

Assays:
[1] = target: T1, SPL3 fused to GAL4 DNA-binding domain (Arabidopsis thaliana) (UniProt P93015); assay: two-hybrid; yeast AH109; SPLs fused to GAL4 DNA-binding domain (pGBKT7), partners fused to GAL4 activation domain (pGADT7); SD-Leu-Trp-His or SD-Ade-Leu-Trp-His plates with 10 mM (SPL2, SPL3) or 15 mM (SPL9) 3-amino-1,2,4-triazole, 3-4 days at 30 °C
T1 sequence: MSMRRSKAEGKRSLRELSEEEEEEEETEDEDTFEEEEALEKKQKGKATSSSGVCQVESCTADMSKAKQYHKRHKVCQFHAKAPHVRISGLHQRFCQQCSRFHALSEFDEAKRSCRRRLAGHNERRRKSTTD

[2] = target: T2, SQUAMOSA PROMOTER BINDING PROTEIN-LIKE9 (SPL9) fused to GAL4 DNA-binding domain (Arabidopsis thaliana) (UniProt Q700W2); assay: as above
T2 sequence: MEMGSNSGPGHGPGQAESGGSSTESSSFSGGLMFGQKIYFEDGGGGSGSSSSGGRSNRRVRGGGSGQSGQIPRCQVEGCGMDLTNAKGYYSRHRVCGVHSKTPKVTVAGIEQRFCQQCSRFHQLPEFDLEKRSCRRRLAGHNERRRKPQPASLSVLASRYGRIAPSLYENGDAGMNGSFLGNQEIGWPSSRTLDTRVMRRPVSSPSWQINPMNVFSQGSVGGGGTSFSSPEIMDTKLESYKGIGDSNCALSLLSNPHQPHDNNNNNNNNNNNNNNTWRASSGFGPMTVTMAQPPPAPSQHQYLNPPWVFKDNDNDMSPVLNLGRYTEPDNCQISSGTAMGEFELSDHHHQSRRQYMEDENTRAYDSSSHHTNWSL

[3] = target: T3, SPL2 fused to GAL4 DNA-binding domain (Arabidopsis thaliana) (UniProt Q9S840); assay: as above
T3 sequence: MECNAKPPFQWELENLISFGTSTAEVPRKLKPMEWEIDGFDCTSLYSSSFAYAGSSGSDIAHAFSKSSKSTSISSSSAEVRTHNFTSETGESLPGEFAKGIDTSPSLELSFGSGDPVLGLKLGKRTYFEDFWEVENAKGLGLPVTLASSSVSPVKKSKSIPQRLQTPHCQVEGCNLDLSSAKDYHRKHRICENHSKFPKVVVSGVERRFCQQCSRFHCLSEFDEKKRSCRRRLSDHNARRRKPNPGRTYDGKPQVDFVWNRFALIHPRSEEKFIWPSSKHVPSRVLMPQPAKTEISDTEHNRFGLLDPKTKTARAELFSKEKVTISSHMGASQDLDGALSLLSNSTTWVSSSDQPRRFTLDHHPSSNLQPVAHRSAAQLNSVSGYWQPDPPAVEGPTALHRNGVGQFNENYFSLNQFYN

[4] = target: T4, Recombinant HIS-SPL9 protein (Arabidopsis thaliana) (UniProt Q700W2); assay: pull-down; 80 μg recombinant HIS-SPL9 mixed with total tobacco leaf proteins containing JAZ3δN-HA or JAZ3δC-HA in 1 ml; HIS-SPL9 bound to Ni-NTA resin, 1 h at 4 °C, eluted with imidazole; anti-HA immunoblot; only the target purified
T4 sequence: T2 sequence

In the case of JAZ1 in pGADT7 (Arabidopsis thaliana), the binding [1] is reported as “no binding”, the binding [2] is reported as “binds” and the binding [3] is reported as “binds”.

For JAZ2 in pGADT7 (Arabidopsis thaliana), the binding [1] was “no binding”.

In the case of “JAZ3δC (JAZ3 without the Jas motif-containing C-terminal) fused to GAL4 activation domain (Arabidopsis thaliana) (domain or fragment)”, the binding [2] is reported as “binds”.

In the case of “JAZ3δC-HA (Arabidopsis thaliana) (domain or fragment)”, the binding [4] is reported as “binds”.

With “JAZ3δN (JAZ3 without the ZIM domain-containing N-terminal) fused to GAL4 activation domain (Arabidopsis thaliana) (domain or fragment)” the binding [2] was “no binding”.

“JAZ3δN-HA (Arabidopsis thaliana) (domain or fragment)” was tested, and the binding [4] was “no binding”.

JAZ6 in pGADT7 (Arabidopsis thaliana) was tested, and the binding [1] was “no binding” and the binding [2] was “binds”.

In the case of JAZ12 in pGADT7 (Arabidopsis thaliana), the binding [1] is reported as “no binding”.
